Values quoted from earlier work, collected in patent US20080248134A1, “Oral compositions, use and combinations of N-[2-(dimethylamino)ethyl]-2,6 dimethyl-1-oxo-1,2-dihydrobenzo[b]-1,6-naphthyridine-4-carboxamide and closely related analogues thereof” (Auckland Uniservices Limited, priority 2005, published 2008).
At least one compound was matched to its structure with a doubt left.

Settings: cited from earlier work

In the case of `COc1cccc2c1ccc1nc3cccc(C(=O)N[C@H](C)CN(C)C)c3nc12` [XR 11576], the “potency relative to DACA” value is given as “approximately 4 fold”.
